Measured values: patent publication US20240190992A1 (UNIVERSITY PUBLIC CORPORATION OSAKA, published 2024)
Changes are numbered by the printed parent chain. Results are given in words; binding and its absence hold for the method and conditions named. Some entries that bind do so weakly or less than the wild type. Each block holds one binder with its values, some of them ahead of it.

Chains of the proteins cited; added tags and fusions are not shown. Residues count along the entry.
UniProt P31946, residues 2-246: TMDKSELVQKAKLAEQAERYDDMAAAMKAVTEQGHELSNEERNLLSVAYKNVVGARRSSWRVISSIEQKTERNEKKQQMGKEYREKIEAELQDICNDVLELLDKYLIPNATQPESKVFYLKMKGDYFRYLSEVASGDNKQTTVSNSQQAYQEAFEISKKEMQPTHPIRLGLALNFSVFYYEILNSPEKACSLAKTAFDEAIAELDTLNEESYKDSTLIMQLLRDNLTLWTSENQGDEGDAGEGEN

Experiments:
[1] = biological target: 14-3-3 protein beta/alpha (UniProt P31946); experiment: antibody affinity column on KMC07 whole cell extract, mass analysis
[2] = biological target: 14-3-3 protein beta/alpha (UniProt P31946); experiment: antibody affinity column on KMC07 whole cell extract, silver staining, mass analysis of the eluted band; filing considers it non-specific

binding [1]: binds
binding [2]: binds
B1: 1B4G4 (antibody I) (antibody, IgG2b, V domains shown)
VH: QVQLKESGPGLVQPSQTLSLTCTVSGFSLSSYGVIWVRQPPGKGLEWMGLIWDNGNTNYNSALKSRLSISRDTSKSQVFLKMNNLQTEDTAMYFCARSRHYFDYWGQGVMVTVSS
VL: DIQMTQSPSLLSASVGDRVTLNCKASQNIYKILAWYQQKLGEAPKLLIYNADSLQTGIPSRFSGSGSGTDFTLTISSLQPEDVATYFCQQYYSGWTFGGGTKLELK

binding [1]: binds
binding [2]: binds
B2: 1E7G5 (antibody I) (antibody, IgG2b, V domains shown)
VH: B1 VH with N56D, N60C, A62P
VL: B1 VL with I32N, L46F, D52N
